Results as given in paper PMC6478693.

By UniProt entry, the sequences of proteins in these tests, tags left out. Where a name states a change or a piece, a line headed by the entry shows the natural chain unless it says otherwise.
UniProt P15056: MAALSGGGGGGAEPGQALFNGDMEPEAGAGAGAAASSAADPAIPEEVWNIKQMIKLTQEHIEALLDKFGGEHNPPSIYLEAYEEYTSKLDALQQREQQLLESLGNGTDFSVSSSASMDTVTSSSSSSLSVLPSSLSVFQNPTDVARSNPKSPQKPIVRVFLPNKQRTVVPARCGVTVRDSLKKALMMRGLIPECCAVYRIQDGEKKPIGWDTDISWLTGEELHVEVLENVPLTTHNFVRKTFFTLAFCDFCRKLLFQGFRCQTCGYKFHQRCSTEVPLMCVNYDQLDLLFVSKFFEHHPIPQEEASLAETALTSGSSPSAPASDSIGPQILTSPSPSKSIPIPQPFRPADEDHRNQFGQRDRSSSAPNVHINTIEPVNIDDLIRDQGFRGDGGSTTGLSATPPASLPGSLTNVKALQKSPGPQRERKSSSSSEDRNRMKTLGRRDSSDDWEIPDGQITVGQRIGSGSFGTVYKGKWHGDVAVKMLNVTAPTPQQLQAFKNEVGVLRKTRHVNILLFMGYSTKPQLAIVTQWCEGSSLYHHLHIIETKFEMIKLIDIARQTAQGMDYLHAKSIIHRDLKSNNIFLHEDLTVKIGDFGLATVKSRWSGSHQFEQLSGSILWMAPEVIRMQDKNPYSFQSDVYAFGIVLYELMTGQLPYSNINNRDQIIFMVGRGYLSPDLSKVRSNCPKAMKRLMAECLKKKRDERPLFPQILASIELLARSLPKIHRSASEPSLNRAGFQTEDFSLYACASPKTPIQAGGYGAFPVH
UniProt Q8C863: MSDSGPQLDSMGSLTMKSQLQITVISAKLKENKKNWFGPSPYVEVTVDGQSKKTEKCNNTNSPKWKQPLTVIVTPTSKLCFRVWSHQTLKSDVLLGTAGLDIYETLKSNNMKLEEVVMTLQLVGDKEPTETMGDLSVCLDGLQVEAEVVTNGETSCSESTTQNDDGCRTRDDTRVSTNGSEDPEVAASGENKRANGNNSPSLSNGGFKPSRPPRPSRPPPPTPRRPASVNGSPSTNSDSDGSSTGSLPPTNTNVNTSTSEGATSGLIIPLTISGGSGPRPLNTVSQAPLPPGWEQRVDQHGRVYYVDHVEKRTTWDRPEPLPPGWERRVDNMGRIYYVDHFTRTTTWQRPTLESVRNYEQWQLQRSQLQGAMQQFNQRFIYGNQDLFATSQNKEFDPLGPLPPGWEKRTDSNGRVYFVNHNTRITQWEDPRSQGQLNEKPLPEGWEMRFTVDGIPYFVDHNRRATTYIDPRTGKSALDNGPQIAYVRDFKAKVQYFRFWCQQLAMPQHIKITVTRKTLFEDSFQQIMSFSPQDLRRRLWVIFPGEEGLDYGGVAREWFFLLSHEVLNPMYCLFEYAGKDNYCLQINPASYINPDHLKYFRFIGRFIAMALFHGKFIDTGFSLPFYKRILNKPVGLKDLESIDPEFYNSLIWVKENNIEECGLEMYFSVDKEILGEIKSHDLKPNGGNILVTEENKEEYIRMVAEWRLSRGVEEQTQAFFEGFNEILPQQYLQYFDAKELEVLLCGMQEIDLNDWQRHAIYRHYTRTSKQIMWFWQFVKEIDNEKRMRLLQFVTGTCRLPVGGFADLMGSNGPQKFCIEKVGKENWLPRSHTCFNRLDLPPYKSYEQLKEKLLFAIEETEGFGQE

Columns and labels:
Test in all cases: co-IP; 293T cells transfected with HA-ITCH and Flag-RAF or Flag-BRAF constructs; 10 µM MG132 for 12 h before harvest; lysis in EBC buffer, washes in NETN buffer
[1] = biological target: Flag-BRAF mutated in the P705/P708 motif (UniProt P15056)
[2] = biological target: Flag-BRAF mutated in the P490/P492 motif (UniProt P15056)
[3] = biological target: Flag-BRAF mutated in the P631/F634 motif (UniProt P15056)
[4] = biological target: Flag-BRAF mutated in the P655 motif (UniProt P15056)
[5] = biological target: Flag-BRAF mutated in the P731 motif (UniProt P15056)

binding [1]: binds
binding [2]: binds
binding [3]: binds
binding [4]: binds
binding [5]: binds
Substance: HA-ITCH (from UniProt Q8C863 1-864) (enzyme)

Results are given in words; binding and its absence hold for the method and conditions named. Binding seen in cells or lysates may run through a third protein. A result given as binding can be weak or reduced; the word gives no strength.
